Assay: Assessment of sugars using the Benedict's Test
Assay type: physicochemical
Text: In at least one embodiment, the crosslinking composition comprises a reducing sugar and a cosmetically acceptable carrier. As used herein, the expression “reducing sugar” means any sugar that either has an aldehyde group or is capable of forming an aldehyde group in solution through isomerism, and that gives a positive result in the Benedict's test. An aldehyde group is —C(═O)H. The Benedict's test involves employment of the Benedict's solution. The Benedict's solution is available from Aldrich as ‘Benedict's Reagent’, which comprises sodium carbonate, copper sulphate pentahydrate and 2,5-difluorotoluene. In the Benedict's test, 1 mL of Benedict's solution is added to a 20 mL of 5% aqueous solution comprising a dissolved test compound. Benedict's solution contains blue copper(II) ions (Cu^2+). The solution is heated to 80° C. for 15 min and the resulting colour change is noted. The cupric ion of the Benedict's solution is reduced to cuprous ion by the aldehyde of the sugar. A positive test is confirmed with a change in colour as cupric ions (Cu^2+) are converted to cuprous ions i.e. reduced to copper(I) ions (Cu^+). These are precipitated as red copper(I) oxide which is insoluble in water. The test is also designed for longer heating time and higher temperature to note any colour change. The solution may range in colour (with increasing amounts of reducing sugar) from green, through yellow and orange, to red. […] The wavelength will change with the colour. In general, the Benedict's reagent is used as a test for the presence of reducing sugars. This includes all monosaccharides and many disaccharides, including lactose and maltose. Even more generally, Benedict's test will detect the presence of aldehydes, and alpha-hydroxy-ketones, including those that occur in certain ketoses. Thus, although fructose, a ketose, is not strictly a reducing sugar, it is an alpha-hydroxy-ketone, it gives a positive test because it is converted to the aldoses glucose and mannose by the base in the reagent. The copper sulphate in Benedict's solution reacts with reducing sugars. One litre of Benedict's reagent can be prepared from 100 g of anhydrous sodium carbonate, 173 g of sodium citrate and 17.3 g of copper(II) sulfate pentahydrate. Benedict's Reagent provides a quantitative test for reducing sugars along with qualitative test. The colour of the obtained precipitate gives an idea about the quantity of sugar present in the solution. A greenish precipitate indicates about 0.5% concentration; yellow precipitate indicates 1% concentration; orange indicates 1.5% and red indicates 2% or higher concentration. A positive result in the Benedict's test can be recognised for a compound by a 5% (weight/weight) solution of compound in water as a red colouring. The aldehyde group of the sugar allows the sugar to act as a reducing agent, for example in the Benedict's test.

[1] = 80° C., 15 min, 1 mL Benedict's solution added to 20 mL of 5% aqueous solution of test compound

Compound: O=C[C@@H](O)[C@H](O)[C@H](O)CO [Arabinose]
- Benedict's Test result [1]: Positive
- Benedict's Test result (100° C., 40 min): Positive

Compound: O=C(CO)[C@@H](O)[C@H](O)[C@H](O)CO [Fructose]
- Benedict's Test result [1]: Positive
- Benedict's Test result (100° C., 40 min): Positive

Compound: CO[C@H]1OC(CO)[C@H](O)[C@@H](O)[C@@H]1O (stereo partly drawn) [Methyl glucoside]
- Benedict's Test result [1]: Negative
- Benedict's Test result (100° C., 40 min): Positive

Compound: O=C[C@H](O)[C@H](O)[C@H](O)CO [Ribose]
- Benedict's Test result [1]: Positive
- Benedict's Test result (100° C., 40 min): Positive

Compound: OC[C@H]1O[C@@](CO)(O[C@H]2O[C@H](CO)[C@@H](O)[C@H](O)[C@H]2O)[C@@H](O)[C@@H]1O [Sucrose]
- Benedict's Test result [1]: Negative
- Benedict's Test result (100° C., 40 min): Positive

Compound: O=C[C@H](O)[C@@H](O)[C@H](O)CO [Xylose]
- Benedict's Test result [1]: Positive
- Benedict's Test result (100° C., 40 min): Positive

Reference: patent US10945931B2, “Shaping keratin fibres using dialdehyde compounds” (The Procter & Gamble Company, priority 2015, dated 2021)
